From US5571793A (Bayer Aktiengesellschaft, priority 1993, dated 1996)

Experiment: general procedure: solution-phase peptide synthesis; bis-(2-oxo-3-oxazolidinyl)-phosphinic chloride, diisopropylethylamine

Substance	step yield (late stage modification step) [%]	step yield (coupling step) [%]
tert.-Butyl-N-methyl-L-phenylalanyl-D-lactyl-N-methyl-D-phenylalanyl-D-lactate	82	
Bzl-L-MeLeu-D-Lac-L-MeLeu-D-PheLac-O^t Bu		80
